Experimental data: PubChem BioAssay AID1259308 (NCATS, 2017)
Aim: 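Genes whose loss raises luciferase production in HEK293 cells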 (primary screen). System: human HEK293 embryonic kidney cells stably expressing firefly luciferase (HEK-CMV-Luc2-Hygro). Reagent: single siRNA against human genes, 0.8 pmol siRNA per well. Timing: 72 h. Measured: 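Luciferase light (ONE-Glo) measured on one replicate plate set and viability (CellTiter-Glo) on the other, scaled to a negative control siRNA, with robust z-scores and luciferase per cell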. Reading the numbers: total luciferase, z-score: higher = more reporter protein produced. Active means: 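An siRNA counts as active if its total luciferase robust z-score exceeds 3; genes with two or more such siRNAs out of three were retested with fresh siRNAs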. Meaning of the calls: active = raised luciferase; inactive = no rise.
This is an unselected part of about 59,000 deposited reagents. About 1,510 of all reagents (2.6%) count as active. 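Calls use total luciferase alone and ignore viability, so some active siRNAs may act by altering cell number.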 Entries without a mark were called inactive. Not all columns of the deposit are shown.

| gene | PubChem SID | total luciferase, z-score |
| --- | --- | --- |
| UNC119B (GeneID 84747) | SID160735115 | -0.711 |
| UNC119B (GeneID 84747) | SID160752666 | -0.478 |
| UNC119B (GeneID 84747) | SID160752667 | -0.525 |
| CAMTA2 (GeneID 23125) | SID160735504 | 1.04 |
| CAMTA2 (GeneID 23125) | SID160735505 | -1.42 |
| CAMTA2 (GeneID 23125) | SID160735506 | -1.93 |
| DDX19A (GeneID 55308) | SID160743496 | -1.12 |
| DDX19A (GeneID 55308) | SID160743497 | 1.43 |
| DDX19A (GeneID 55308) | SID160743498 | 2.5 |
| UQCR10 (GeneID 29796) | SID160739178 | -1.73 |
| UQCR10 (GeneID 29796) | SID160739179 | -0.0869 |
| UQCR10 (GeneID 29796) | SID160739180 | 0.717 |
| LBR (GeneID 3930) | SID160731197 | 1.07 |
| LBR (GeneID 3930) | SID160776536 | 1.53 |
| LBR (GeneID 3930) | SID160776537 | 0.576 |
| SMCHD1 (GeneID 23347) | SID160736066 | 1.27 |
| SMCHD1 (GeneID 23347) | SID160736067 | -0.0678 |
| SMCHD1 (GeneID 23347) | SID160736068 | 1.04 |
| CCDC88B (GeneID 283234) | SID160762827 | 0.0889 |
| CCDC88B (GeneID 283234) | SID160762828 | 1.12 |
| CCDC88B (GeneID 283234) | SID160762829 | 0.00309 |
| SEMA4A (GeneID 64218) | SID160747585 | 2.29 |
| SEMA4A (GeneID 64218) | SID160747586 | -1.32 |
| SEMA4A (GeneID 64218) | SID160747587 | 2.04 |

Continued (5 carried over from the part before).
| gene | PubChem SID | total luciferase, z-score |
| --- | --- | --- |
| CCDC88B (GeneID 283234) | SID160762828 | 1.12 |
| CCDC88B (GeneID 283234) | SID160762829 | 0.00309 |
| SEMA4A (GeneID 64218) | SID160747585 | 2.29 |
| SEMA4A (GeneID 64218) | SID160747586 | -1.32 |
| SEMA4A (GeneID 64218) | SID160747587 | 2.04 |
| FAM194C (GeneID 84077) | SID160751693 | -0.201 |
| FAM194C (GeneID 84077) | SID160751694 | 1.87 |
| FAM194C (GeneID 84077) | SID160751695 | -0.336 |
| G3BP1 (GeneID 10146) | SID160726049 | 0.0888 |
| G3BP1 (GeneID 10146) | SID160726056 | 2.9 |
| G3BP1 (GeneID 10146) | SID160726065 | 3.8 (active) |
| FBXO15 (GeneID 201456) | SID160760984 | -0.835 |
| FBXO15 (GeneID 201456) | SID160760985 | -0.15 |
| FBXO15 (GeneID 201456) | SID160760986 | -0.337 |
| UBE2C (GeneID 11065) | SID160729860 | 1.07 |
| UBE2C (GeneID 11065) | SID160729861 | 0.0647 |
| UBE2C (GeneID 11065) | SID160729862 | -0.772 |
| SLC35D2 (GeneID 11046) | SID160729820 | 0.483 |
| SLC35D2 (GeneID 11046) | SID160729821 | 0.0632 |
| SLC35D2 (GeneID 11046) | SID160730497 | 2.92 |
